Experimental data: PubChem BioAssay AID652259 (Drosophila RNAi Screening Center, 2013)

- Test: 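Identify new Wingless signalling regulators in fly cells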 (primary screen)
- System: Drosophila clone 8 imaginal disc epithelial cells
- Reagent: long dsRNA against Drosophila genes
- Treatment: pathway stimulated by co-transfected Wingless expression plasmid
- Detection: 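Firefly luciferase from a tcf-site Wingless reporter, measured alongside co-transfected Renilla luciferase that tracks transfection; pathway stimulated by a Wingless plasmid; the firefly-to-Renilla ratio is not deposited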
- Scale: firefly reporter light: higher = more Wg reporter light, before normalisation; Renilla control light: higher = more transfected or surviving cells
- Rule for the call: 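Strong candidates differ from their plate mean by at least two out of four per-plate statistical tests; weak candidates meet just one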
- Meaning of the calls: active = candidate regulator (raises or lowers reporter); inactive = not a candidate
The screen tested about 22,000 reagents; below is an unselected part of those with a known target gene and a result. Of all reagents, 233 (1.1%) were called active. 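Light values are raw, unnormalised plate reads; the ratio scores behind the reporter calls were not deposited.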 Entries without a mark were called inactive. Not given: the amount of reagent, the time to read-out, the dose of the treatment.

Target gene | PubChem SID | reporter change call, replicate 1 | firefly reporter light, replicate 1 | firefly reporter light, replicate 2 | Renilla control light, replicate 1 | Renilla control light, replicate 2
CG5693 | SID104182670 | – | 2428 | 5771 | 759 | 3168
CG42812 | SID104195160 | – | 15334 | – | 12832 | –
Cp18 | SID104190912 | – | 1574 | 7859 | 1228 | 3692
FucTB | SID104182537 | – | 3248 | 5088 | 982 | 2802
CG12025 | SID104188022 | – | 6384 | – | 2492 | –
ECSIT | SID104192140 | – | 13389 | – | 3112 | –
CG43322 | SID104182072 | – | 2617 | 4273 | 928 | 1814
CG30394 | SID104183866 | – | 2743 | 8947 | 678 | 2276
CG30394 | SID104184052 | – | 2550 | 4098 | 704 | 1712
CG11125 | SID104185834 | – | 3307 | 5139 | 867 | 1985
euc | SID104194284 | – | 17589 | – | 3954 | –
Nepl6 | SID104183034 | – | 2544 | – | 1276 | –
CG12224 | SID104194272 | – | 17596 | – | 5317 | –
CG8243 | SID104186914 | – | 3648 | 14075 | 1731 | 5880
CG8243 | SID104202023 | – | 4.31e5 | 4.47e5 | 1.69e5 | 1.64e5
CG15185 | SID104192357 | – | 7653 | – | 1872 | –
CAH2 | SID104190538 | – | 8112 | – | 2848 | –
Cdep | SID104191820 | – | 4084 | – | 2006 | –
Cdep | SID104192012 | Wg reporter activity lowered | 6902 | – | 1516 | –
Cdep | SID104192083 | – | 10864 | – | 4678 | –
CG14961 | SID104188212 | – | 6928 | – | 2569 | –
su(r) | SID104198497 | – | 1988 | 6569 | 525 | 1769
lncRNA:CR9162 | SID104182943 | – | 16156 | – | 6753 | –
CG40439 | SID104202092 | – | 4.71e5 | 4.68e5 | 2.47e5 | 61504
CG31650 | SID104182932 | – | 9101 | 7.30e5 | 4064 | 3.59e5
RpS2 | SID104183406 | – | 5653 | – | 1053 | –
CG15404 | SID104180210 | – | 2011 | 5719 | 758 | 2545
Or42a | SID104184704 | – | 1712 | 6140 | 644 | 2277
Rrp1 | SID104180576 | – | 3428 | 8128 | 1691 | 2936

3 successive records already listed, for reference:
Target gene | PubChem SID | reporter change call, replicate 1 | firefly reporter light, replicate 1 | firefly reporter light, replicate 2 | Renilla control light, replicate 1 | Renilla control light, replicate 2
CG30394 | SID104183866 | – | 2743 | 8947 | 678 | 2276
CG30394 | SID104184052 | – | 2550 | 4098 | 704 | 1712
CG11125 | SID104185834 | – | 3307 | 5139 | 867 | 1985
